Measured values taken from the supplement of paper PMC3334620.
The full ranking holds about 33,000 sequences; the median of “E-score (-0.5 to 0.5)” is about -0.016, and the highest 2% start at about 0.3. The list shows a part of the results.

Target: T1, Yer184c (UniProt P39961)
T1 sequence: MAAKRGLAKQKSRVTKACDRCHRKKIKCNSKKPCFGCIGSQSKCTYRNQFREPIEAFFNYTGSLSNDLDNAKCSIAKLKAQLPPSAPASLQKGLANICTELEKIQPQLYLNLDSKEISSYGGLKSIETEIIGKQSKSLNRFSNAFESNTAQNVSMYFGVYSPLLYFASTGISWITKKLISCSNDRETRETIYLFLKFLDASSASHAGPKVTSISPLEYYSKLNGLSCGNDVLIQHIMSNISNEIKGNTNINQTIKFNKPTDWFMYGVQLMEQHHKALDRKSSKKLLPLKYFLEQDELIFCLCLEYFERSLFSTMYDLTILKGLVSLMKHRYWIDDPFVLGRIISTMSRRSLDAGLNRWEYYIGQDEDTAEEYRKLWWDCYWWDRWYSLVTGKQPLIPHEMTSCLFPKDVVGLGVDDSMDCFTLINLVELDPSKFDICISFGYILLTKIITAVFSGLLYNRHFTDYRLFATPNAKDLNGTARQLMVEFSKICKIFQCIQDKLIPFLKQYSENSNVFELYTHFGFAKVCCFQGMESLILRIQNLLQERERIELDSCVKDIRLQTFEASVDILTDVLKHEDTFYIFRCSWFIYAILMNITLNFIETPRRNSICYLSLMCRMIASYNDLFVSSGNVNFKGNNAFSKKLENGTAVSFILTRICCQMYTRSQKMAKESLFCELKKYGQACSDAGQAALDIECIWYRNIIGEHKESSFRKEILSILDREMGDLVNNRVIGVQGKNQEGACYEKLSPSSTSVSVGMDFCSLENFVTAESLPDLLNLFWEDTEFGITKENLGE
Test: PBM E-score (8-mer binding enrichment) (E-score (-0.5 to 0.5)); higher = stronger / more preferred TF binding
Settings: protein concentration: 100 nM; construct: GST-full length
How it was run: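 Yeast transcription factors, full-length or as DNA-binding domains, were expressed with a GST tag using PURExpress in vitro transcription/translation. At about 100-200 nM they were applied to universal all-10-mer Agilent arrays, double-stranded by primer extension on fresh or once-stripped slides. Fluorescent anti-GST detected bound protein, and masliner normalised the scans. E-scores for ungapped eight-base words, pooled with reverse complements, came from the Universal PBM Analysis Suite.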

Row | Sequence | PBM E-score
1 | CAAGGACC | -0.0359
2 | ATCCTCCC | -0.163
3 | CATTACCA | -0.0623
4 | AGGCGGGG | -0.197
5 | TCCCAGAA | -0.115
6 | TCTCTCCA | -0.0609
7 | CCTTACTA | -0.0138
8 | ACACTGTA | -0.076
9 | ATTATTTA | 0.292
10 | ATATTCGA | -0.0655
11 | ATTCCTGA | -0.0117
12 | AAATGACA | -0.0662
13 | CTGCTACA | 0.099
14 | CGCGGAGA | 0.308
15 | CCGTGTCA | 0.168
16 | TCGACTAA | 0.0483
17 | AGGTACTA | 0.00502
18 | CAAACTTC | 0.077
19 | CCCTGGGC | -0.252
20 | CCGGGGCC | 0.238
21 | CCCCCCCC | -0.482
22 | TCGAGACA | -0.0512
23 | CATGACTA | -0.155
24 | AATTAATG | 0.22
25 | ACCTATCC | -0.00171

Row | Sequence | PBM E-score
26 | CACTTAGC | -0.108
27 | ACTTGTGG | -0.0585
28 | CCTGTTCA | -0.112
29 | AAATTTTC | 0.223
30 | AAGGATCG | 0.066
31 | CAAGGAGC | -0.245
32 | CCCACAAG | -0.0376
33 | CCGTAGTC | 0.0894
34 | GAATGAGC | -0.0539
35 | GAGCTGGC | -0.143
36 | GAGGACGC | -0.0257
37 | ATTGTGGC | -0.0356
38 | AAACGACC | -0.0302
39 | AAACCTCA | 0.102
40 | GCATGAGC | -0.142
41 | CGTCCAGC | -0.0398
42 | ACACAGGA | -0.0227
43 | AAAACAGC | 0.101
44 | CCCCGGTA | 0.0232
45 | CACCCCCC | -0.403
46 | AGTATCCG | 0.332
47 | ATATCCGA | 0.343
48 | ACGGAGTC | 0.0797
49 | AACCCTAG | -0.0513
50 | TGTCGCAA | 0.0444

Row | Sequence | PBM E-score
51 | GTCCGATA | 0.234
52 | CACGGACC | 0.192
53 | ATTTAAGG | 0.0545
54 | TGAGGGAA | -0.16
55 | AATCATGG | -0.0724
56 | AATAGTCA | 0.125
57 | AGCAGGCC | -0.0824
58 | AACGTCTC | 0.0227
59 | CTACGCTA | -0.166
60 | GCTCCAAA | -0.0747
61 | ATCTCCGG | 0.435
62 | ATTAATAA | 0.254
63 | ATCCTATG | -0.0991
64 | AACGAGCA | -0.146
65 | TACACGTA | -0.106
66 | AATGAGGT | -0.0317
67 | CCCTACAC | -0.0486
68 | CGTCATCA | -0.122
69 | ATAATAGC | 0.0256
70 | CAACGCAC | -0.0898
71 | CTAGTCTC | -0.174
72 | ATCTCGAA | 0.103
73 | ATTTCTGG | -0.0378
74 | GGAGGATA | 0.00576
75 | CTGTGAGC | -0.0633

Row | Sequence | PBM E-score
76 | CTCTATAC | -0.0989
77 | AGCGCTAA | 0.155
78 | AAGTTAAG | -0.0719
79 | ATTAGTGG | 0.0905
80 | ACCGTTTA | 0.121
81 | AGACCTAA | -0.106
82 | CAATCCCC | -0.0444
83 | TCTAGAAA | 0.123
84 | TAATACGA | 0.0735
85 | AGTCTACA | -0.185
86 | CAACTGTG | -0.0301
87 | AGGGGGCG | -0.204
88 | CTCCAACA | -0.035
89 | CATACGAC | -0.111
90 | ATACTCAA | 0.125
91 | CATTAGGC | -0.164
92 | AGTTCAAC | 0.102
93 | CATGCCGA | 0.336
94 | ATGCAGTG | -0.0888
95 | AATTCGCT | 0.128
96 | AGCGTGAG | -0.284
97 | ACCTTCCA | -0.103
98 | AGGGCTTA | -0.164
99 | ACGACCTA | -0.04
100 | GGACTCCC | -0.238

For reference, part of the list above:
Row | Sequence | PBM E-score
91 | CATTAGGC | -0.164
92 | AGTTCAAC | 0.102
93 | CATGCCGA | 0.336
94 | ATGCAGTG | -0.0888
95 | AATTCGCT | 0.128
96 | AGCGTGAG | -0.284
97 | ACCTTCCA | -0.103

Next entries:

Row | Sequence | PBM E-score
101 | AAATACAG | -0.0617
102 | GATATGAC | 0.0731
103 | AATGTGGT | -0.114
104 | CGGACTCA | 0.186
105 | TAACAAGA | 0.126
106 | AATAACCC | 0.12
107 | TATAGATA | 0.0313
108 | CTGGGTCA | -0.101
109 | ATTCAACG | 0.166
110 | ATTGTAAA | 0.232
111 | ACCTATAC | -0.0907
112 | ATGGACTC | -0.162
113 | AGGGGCTA | -0.215
114 | CGTCACTC | -0.143
115 | TCACGCAA | 0.209
116 | CGTGCCAA | -0.0991
117 | AGTGGTGG | -0.257
118 | GAGCTGTA | -0.104
119 | GGCGGCAC | 0.0696
120 | CCCTGTTA | 0.0846
121 | CATGTGCG | 0.0401
122 | AAATAAAT | 0.34
123 | AGACTAAC | -0.00053
124 | ACCGTAAC | 0.0104
125 | AACCAGAT | 0.053

Row | Sequence | PBM E-score
126 | GGGAGTTA | -0.105
127 | CGGACCAA | 0.343
128 | CGGGTCTC | -0.105
129 | TGCTCGAA | -0.0396
130 | ATAGAATG | 0.0303
131 | CGCGAGCA | -0.0911
132 | CCCTAAAC | -0.139
133 | GTTTCTGA | 0.123
134 | AGTTTTCG | 0.145
135 | ATACTTAG | 0.0154
136 | GGCCTGCA | -0.324
137 | GGGGCAAC | -0.244
138 | CCCTCATA | -0.288
139 | CTAAACGC | 0.0164
140 | TACCACCA | -0.0488
141 | ATTTCTGA | -0.0713
142 | GCATGGGC | -0.154
143 | AAGCCCCC | -0.281
144 | AAGCGGAC | 0.035
145 | ATCGGGAG | 0.018
146 | ATTCGCTG | 0.0621
147 | AACCGCTT | 0.0486
148 | GACCGCGC | 0.031
149 | CGAGAAAC | 0.0821
150 | ATCGACAC | -0.151

Look-ups from the entries so far.
PBM E-score, CGGGTCTC reads -0.105
PBM E-score, GCATGGGC reads -0.154
PBM E-score, CGCGAGCA reads -0.0911
PBM E-score, ATAGAATG reads 0.0303
PBM E-score, CCCTCATA reads -0.288
PBM E-score, AAGCCCCC reads -0.281

Additional records follow.

Row | Sequence | PBM E-score
151 | ACGGTGAC | -0.153
152 | CTTCACAA | -0.0692
153 | ACAATGAG | -0.147
154 | CCACGCTC | -0.246
155 | GCGAAGTA | 0.00472
156 | ACCGGGGC | 0.0386
157 | CACGGTGG | -0.254
158 | CTGCCGAC | 0.0291
159 | ACATAAAA | 0.0778
160 | AAATCAGA | 0.137
161 | CCCCGGAA | 0.151
162 | CAACCTGG | -0.079
163 | CCTACCCC | -0.313
164 | ATCTTTCG | 0.00629
165 | AACAGTGG | -0.158
166 | GATAGTAC | 0.0651
167 | GTCTTTCA | -0.0723
168 | ACCAATCA | 0.0919
169 | ACGTTTGC | -0.15
170 | ACAGACAT | 0.106
171 | TACCATGA | -0.101
172 | AGGGCCCG | 0.0448
